# Laboratory results reported in publication PMC6412040.
# Results are given in words; binding and its absence hold for the method and conditions named.
# Target: USP37^wt (isolated catalytic domain of USP37 from Danio rerio, residues 312–927) (Danio rerio) (UniProt E7F6T8)
# Test: SEC; 1 mL of ~2 mg/mL USP37^wt on Superdex S200 in 25 mM HEPES pH 8, 150 mM NaCl, 5 mM DTT; effective molecular weight from protein standards; both purified
binder,measurement,value
"USP37^wt (isolated catalytic domain of USP37 from Danio rerio, residues 312–927) (enzyme, UniProt E7F6T8 312-927) SVLAQPQPPLQGFSNLGNTCYMNAILQSLFSLPSFSNDLLKQGIPWKRVPINALLRRFAHLLAKKDISPPEVKKDLLRRVKNAISSTAERFSGYMQNDAHEFLSQCLDQLKEDVEKINKSWKNEPSAWDEPQSTRLADEVDTSRIYTCPVTVNMEFEVQHTITCKSCGEVVLKREQFNDLSIDLPRRRKTLPMRSIQDSLDLFFRMEEIEYSCEKCSGKAATVSHKFSRLPRVLILHLKRYSYNTQLSLNSKLGQQVLIPKYLTLLSHCTDATRSPLSLGWSAQNALSRTLKISQSVNSSTLRRASQRPESSGSVLCDSDSDEELVRKVARKHHPDDDRADELQQHHPHAAVEQSEFNGINDEEMLAAVLEMSRHDTSLCAGPDEEPSSSPDTGFGDADAHDLTQHLELLDAEKQPTDALESLDLTMDENKENQTPDGLQGELDWVQQYSLEQEREEQELQQALAQSLQEQEAREMREDDDLKRATELSLQEFNNSLPELLCSDEDSGNEDGLDMEYSEAEAEELKKNAETGELPNSFRLISVVSHIGSSSSSGHYISDVYDMKKQSWLTYNDLDVSRTQESTVQRDRDRSGYIFFYMHKDVFEELSELEKAGVNT",binding,no binding (tested: 1 mL of ~2 mg/mL injected)
